Laboratory results published in PubChem BioAssay AID743144 (Broad Institute, 2013).
Inconclusive results, whose numbers are uncertain, are shown with a selection of clear calls. Active and inactive are the calls of the source. How the calls were made is not given here.

Assay: COV362 cell viability loss – plate reader, dry powder, SA12, cytotoxicity control for PAX8 inhibitor project, dose response (AID 743144)
Conditions: COV362 ovarian cancer cells; at 50 µM (top of the series) unless noted
With `O=C(C[C@@H]1C[C@H]2c3cc(NS(=O)(=O)c4ccc(F)cc4)ccc3O[C@H]2[C@H](CO)O1)NCc1ccc(Cl)cc1` the activity change, negative = cytotoxicity was inconclusive: -57.1% [at 35 µM]. In the case of `N#C[C@@H]1[C@@H](c2ccc(-c3cccc(F)c3)cc2)[C@H](CO)N1C(=O)NC1CCCC1`, the activity change, negative = cytotoxicity is reported as inactive: 4.43% [at 35 µM]. For `O=C(Nc1ccc(OCC(F)(F)C(F)F)c(C(F)(F)F)c1)c1ccccc1O`, the activity change, negative = cytotoxicity was inactive: -10.1%. For `CCc1ccc(/C=C2\SC(=S)N(CCCC(=O)N(CCO)c3ccccc3)C2=O)cc1`, the activity change, negative = cytotoxicity was inconclusive: -42.5% [at 12 µM]. For `COc1cccc(C#Cc2ccc([C@@H]3[C@@H](C#N)N(C(=O)C4CCCC4)[C@@H]3CO)cc2)c1`, the activity change, negative = cytotoxicity was inactive: 1.78% [at 35 µM]. In the case of `Cc1ccc(S(=O)(=O)Nc2ccc3c(c2)nc(CCN2CCCC2)n3C)cc1`, the activity change, negative = cytotoxicity is reported as inconclusive: -59%. With `COC(=O)[C@@]1(CCS(=O)(=O)c2ccccc2)N=C(c2ccc(OCCCO)cc2)O[C@H]1c1ccccc1` the activity change, negative = cytotoxicity was inconclusive: 9.32%. In the case of `CC1(C)CC(=O)c2sc(NC(=O)CCS(=O)(=O)c3ccccc3)nc2C1`, the activity change, negative = cytotoxicity is reported as inconclusive: -54.7%. With `O=C(CCS(=O)(=O)c1ccccc1)Nc1nc2ccc(F)cc2s1` the activity change, negative = cytotoxicity was inactive: -15.5%. For `CN(C)CCCN(C(=O)CCOc1ccccc1)c1nc2c(F)cccc2s1`, the activity change, negative = cytotoxicity was inconclusive: -93.8%. With `COc1ccccc1C#Cc1ccc2c(c1)O[C@@H](CN(C)Cc1ccncc1)[C@H](C)CN([C@H](C)CO)S2(=O)=O` the activity change, negative = cytotoxicity was inconclusive: -45.1% [at 35 µM]. In the case of `CCOCCCNC(=O)c1ccc2c(c1)N=C(CC)c1cc(Br)ccc1S2`, the activity change, negative = cytotoxicity is reported as inconclusive: -86.5%. In the case of `O=C1/C(=C/c2ccccc2F)SC(=S)N1CC(=O)N1CCCCC1c1cccnc1` (stereo not drawn), the activity change, negative = cytotoxicity is reported as inconclusive: -40.2%. In the case of `Cc1ccc(-c2csc(NC3OC(=O)c4ccccc43)n2)cc1` (stereo not drawn), the activity change, negative = cytotoxicity is reported as inconclusive: -83.5%. For `CC(C)c1cc(C(=O)OCC(=O)N2CCN(C(=O)c3ccco3)CC2)c(O)c(C(C)C)c1`, the activity change, negative = cytotoxicity was inactive: 0.074%. With `COc1cccc(C#Cc2ccc([C@H]3[C@@H](CO)N(C(=O)C4CCCC4)[C@H]3C#N)cc2)c1` the activity change, negative = cytotoxicity was inconclusive: -27.8% [at 35 µM]. In the case of `N#C[C@H]1[C@@H](c2ccc(C3=CCCC3)cc2)[C@@H](CO)N1C(=O)NC1CCCCC1`, the activity change, negative = cytotoxicity is reported as inactive: 9.28% [at 35 µM]. For `CCSCCc1nnc(NC(=O)Nc2cccc(C(F)(F)F)c2)s1`, the activity change, negative = cytotoxicity was inconclusive: -58.2%.
